Results are given in words; binding and its absence hold for the method and conditions named.
Experiments:
[1] = molecular target: human recombinant VEGFR3 (human) (UniProt P35916); assay: SPR; BIAcore 3000, 25 °C, CM5 chip; receptor immobilised by amine coupling (~200-500 R.U.); ligand injected at 40, 20 and 10 nM in HBS-EP pH 7.4 (10 mM HEPES, 3 mM EDTA, 150 mM NaCl, 0.005% TWEEN-20); angiopoietin-4 reference cell subtracted; global 1:1 Langmuir fit; χ^2-to-Rmax < 1.0 taken as a true interaction; both purified
VEGFR1 (Homo sapiens) = VEGFR1 (Homo sapiens) (UniProt P17948); assay: as above

Sequences of proteins named here, by UniProt entry; tags and fusion partners are left off. A change or cut given only in a name is not applied to a line headed by its entry. Residues count along the entry.
UniProt P35916, residues 25-775: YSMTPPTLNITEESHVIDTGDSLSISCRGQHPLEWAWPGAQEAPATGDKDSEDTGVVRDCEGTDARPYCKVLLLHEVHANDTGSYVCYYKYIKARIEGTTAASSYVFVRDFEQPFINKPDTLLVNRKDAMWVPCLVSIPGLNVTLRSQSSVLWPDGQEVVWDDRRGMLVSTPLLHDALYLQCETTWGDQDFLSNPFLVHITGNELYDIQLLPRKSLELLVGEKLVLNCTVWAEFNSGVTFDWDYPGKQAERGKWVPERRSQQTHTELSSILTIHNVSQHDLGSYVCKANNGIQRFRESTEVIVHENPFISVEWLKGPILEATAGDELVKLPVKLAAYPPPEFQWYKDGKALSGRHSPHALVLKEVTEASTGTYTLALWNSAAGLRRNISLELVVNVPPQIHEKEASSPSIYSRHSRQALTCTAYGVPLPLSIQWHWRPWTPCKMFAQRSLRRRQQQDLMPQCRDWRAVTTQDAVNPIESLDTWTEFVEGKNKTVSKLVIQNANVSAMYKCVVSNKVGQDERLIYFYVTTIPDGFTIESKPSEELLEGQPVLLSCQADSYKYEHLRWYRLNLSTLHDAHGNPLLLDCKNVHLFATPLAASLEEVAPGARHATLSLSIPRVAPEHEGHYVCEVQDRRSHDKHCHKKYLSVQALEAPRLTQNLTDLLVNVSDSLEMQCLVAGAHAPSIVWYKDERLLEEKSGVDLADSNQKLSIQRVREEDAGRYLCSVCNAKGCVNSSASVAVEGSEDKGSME
UniProt P17948, residues 27-758: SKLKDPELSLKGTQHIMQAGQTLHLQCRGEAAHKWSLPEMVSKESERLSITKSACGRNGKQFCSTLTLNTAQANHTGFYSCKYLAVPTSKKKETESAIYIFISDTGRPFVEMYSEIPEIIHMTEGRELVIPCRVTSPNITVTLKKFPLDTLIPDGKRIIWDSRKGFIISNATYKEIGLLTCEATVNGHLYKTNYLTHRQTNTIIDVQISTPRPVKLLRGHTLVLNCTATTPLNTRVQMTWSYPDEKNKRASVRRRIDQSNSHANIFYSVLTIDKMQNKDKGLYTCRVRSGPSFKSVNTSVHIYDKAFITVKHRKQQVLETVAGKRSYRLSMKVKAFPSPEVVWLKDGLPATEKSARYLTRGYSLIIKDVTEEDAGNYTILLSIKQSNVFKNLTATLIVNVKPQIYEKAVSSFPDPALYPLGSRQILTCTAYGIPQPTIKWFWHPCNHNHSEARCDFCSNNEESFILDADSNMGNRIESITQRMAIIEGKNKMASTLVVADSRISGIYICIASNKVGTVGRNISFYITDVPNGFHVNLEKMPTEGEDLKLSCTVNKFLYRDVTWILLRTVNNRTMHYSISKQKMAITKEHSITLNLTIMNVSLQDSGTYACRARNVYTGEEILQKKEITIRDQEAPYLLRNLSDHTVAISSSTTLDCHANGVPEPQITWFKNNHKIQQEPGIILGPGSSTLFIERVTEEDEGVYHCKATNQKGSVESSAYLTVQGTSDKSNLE
UniProt Q9NRA1: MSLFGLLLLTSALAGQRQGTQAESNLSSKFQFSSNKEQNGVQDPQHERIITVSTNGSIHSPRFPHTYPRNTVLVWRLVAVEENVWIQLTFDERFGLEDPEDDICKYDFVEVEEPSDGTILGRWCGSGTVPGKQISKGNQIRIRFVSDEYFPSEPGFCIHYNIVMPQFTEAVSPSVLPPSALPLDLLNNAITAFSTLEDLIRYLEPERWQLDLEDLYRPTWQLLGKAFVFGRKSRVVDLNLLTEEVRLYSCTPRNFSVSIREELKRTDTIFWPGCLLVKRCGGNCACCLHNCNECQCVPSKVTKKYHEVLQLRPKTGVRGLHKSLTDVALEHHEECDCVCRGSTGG

binding [1]: no binding (tested: 40 nM)
binding (VEGFR1 (Homo sapiens)): no binding (tested: 40 nM)
Substance: human recombinant PDGF-CC (from UniProt Q9NRA1) (ligand)

— article PMC5704011
